# Results reported in PubChem BioAssay AID2685 (National Center for Advancing Translational Sciences (NCATS), 2010).
# This is one part of the list. The main result of the screen is listed elsewhere. These columns were measured beside it and carry no call. The list favours compounds with an active or inconclusive main result. Words in brackets tell the shape of the fitted curve; partial curves, single points and poor fits give uncertain potencies.
# Assay: qHTS Assay for Lipid Storage Modulators in Drosophila S3 Cells;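 for cell number change: cells counted by Cell Tracker Red CMTPX staining in the red channel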
# Details: BODIPY lipid droplet fluorescence, 18-24 h; for cell number change: measured here: cell count max response, cells fed with added oleic acid
# Outline: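 Laser-scanning cytometry quantifies lipid droplet accumulation (500–530 nm total intensity; droplet/cell object ratio) in oleic acid-fed (400 uM added) Drosophila S3 cells treated with a concentration series. 20 uM Triacsin C defined 100% inhibition.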
# [1] = measured here: lipid fluorescence (Fed channel) AC50, cells fed with added oleic acid
# [2] = measured here: cell number channel AC50, cells fed with added oleic acid
Compound,cell number change [%],AC50 [1],AC50 [2]
CNc1c(NS(=O)(=O)c2ccc(C(C)(C)C)cc2)c(=O)oc2ccccc12,26.5,"6.51 µM [rising, partial curve, poor fit]",–
NS(=O)(=O)c1cccc(NC(=O)CCSc2ccc(Cl)cc2)c1,-100,"0.13 µM [falling, full curve, poor fit]","29.1 µM [falling, single point]"
CCOc1cc(CN2CCN(C(=O)CC(C)C)CC2)ccc1OC,39,–,"32.6 µM [rising, single point]"
Clc1cccc(CSc2nnc(-c3cccnc3)n2Cc2ccco2)c1,-4.93,"2.91 µM [rising, full curve]",–
Cc1cc(C)c2nc(-c3ccccn3)cc(C(=O)Nn3cnnc3)c2c1,-12,"0.146 µM [falling, full curve, poor fit]",–
COc1cccc(C(=O)Nc2cccc(-c3ccccc3)c2)c1,–,"1.3 µM [falling, full curve]",–
O=C(COc1ccc(Br)cc1)N/N=C1/SCC(=O)N1Cc1ccccc1,-2.46,"11.6 µM [rising, partial curve, poor fit]",–
CC1CCCCN1C(=O)CCNS(=O)(=O)c1ccc2c(c1)c(=O)n(C)c(=O)n2C (centres undefined),-24.5,"0.82 µM [falling, full curve]","1.16 µM [falling, full curve, poor fit]"
Cc1ccc(C(=O)Cc2ccccc2)o1,35.5,"23.1 µM [rising, single point]","29.1 µM [rising, single point]"
Cc1ccc(Cn2c(SCCN3CCCCC3)nc3c2c(=O)n(C)c(=O)n3C)cc1,-15.7,"20.6 µM [rising, single point]","0.146 µM [falling, full curve, poor fit]"
CC(NC(=O)CN1C(=O)NC2(CCc3ccccc32)C1=O)c1ccccc1 (centres undefined),-6.01,"20.6 µM [rising, single point]",–
CCS(=O)(=O)N(CC(=O)Nc1cccc2ccccc12)c1ccc(OC)cc1,-14.5,"0.092 µM [falling, full curve, poor fit]",–
CN(C)C(CNC(=O)CNC(=O)Cc1cccc2ccccc12)c1ccccc1 (centres undefined),0.952,–,–
Cn1cc(-c2ccccc2C(N)=O)c(=O)c2cc(Cl)ccc21,13.4,"32.6 µM [rising, single point]",–
COc1cc(OC)c(OC)cc1/C=N/N(C)c1ccccc1,5.9,"2.59 µM [rising, partial curve]",–
COc1ccc(OC)c2c1C(=O)C(Cl)=C(Cl)C2=O,-64.2,"3.66 µM [falling, partial curve]","18.4 µM [falling, partial curve, poor fit]"
O=C(COC(=O)CN1C(=O)C2CCCCC2C1=O)NNC(=O)c1ccc(Cl)cc1 (centres undefined),25,–,"7.31 µM [falling, single point]"
Cc1ccc(NC(=O)CN2CCCCCC2)cc1[N+](=O)[O-],24.3,"2.06 µM [rising, partial curve]",–
Cc1ccc(S(=O)(=O)Nc2ccccc2/C=N/c2nc3ccccc3n2C(C)C)cc1,-24.1,–,–
COc1ccc(C2C(C(C)=O)=C(O)C(=O)N2c2ccc(Br)cc2)cc1 (centres undefined),15.1,"6.51 µM [rising, single point]",–

# An excerpt of these results, as tab-separated lines:
Compound	cell number change [%]	AC50 [1]	AC50 [2]
CNc1c(NS(=O)(=O)c2ccc(C(C)(C)C)cc2)c(=O)oc2ccccc12	26.5	6.51 µM [rising, partial curve, poor fit]	–
NS(=O)(=O)c1cccc(NC(=O)CCSc2ccc(Cl)cc2)c1	-100	0.13 µM [falling, full curve, poor fit]	29.1 µM [falling, single point]
Clc1cccc(CSc2nnc(-c3cccnc3)n2Cc2ccco2)c1	-4.93	2.91 µM [rising, full curve]	–
Cc1cc(C)c2nc(-c3ccccn3)cc(C(=O)Nn3cnnc3)c2c1	-12	0.146 µM [falling, full curve, poor fit]	–
COc1cccc(C(=O)Nc2cccc(-c3ccccc3)c2)c1	–	1.3 µM [falling, full curve]	–
O=C(COc1ccc(Br)cc1)N/N=C1/SCC(=O)N1Cc1ccccc1	-2.46	11.6 µM [rising, partial curve, poor fit]	–
CC1CCCCN1C(=O)CCNS(=O)(=O)c1ccc2c(c1)c(=O)n(C)c(=O)n2C (centres undefined)	-24.5	0.82 µM [falling, full curve]	1.16 µM [falling, full curve, poor fit]
Cc1ccc(C(=O)Cc2ccccc2)o1	35.5	23.1 µM [rising, single point]	29.1 µM [rising, single point]
Cc1ccc(Cn2c(SCCN3CCCCC3)nc3c2c(=O)n(C)c(=O)n3C)cc1	-15.7	20.6 µM [rising, single point]	0.146 µM [falling, full curve, poor fit]
CCS(=O)(=O)N(CC(=O)Nc1cccc2ccccc12)c1ccc(OC)cc1	-14.5	0.092 µM [falling, full curve, poor fit]	–
CN(C)C(CNC(=O)CNC(=O)Cc1cccc2ccccc12)c1ccccc1 (centres undefined)	0.952	–	–
Cn1cc(-c2ccccc2C(N)=O)c(=O)c2cc(Cl)ccc21	13.4	32.6 µM [rising, single point]	–
COc1ccc(OC)c2c1C(=O)C(Cl)=C(Cl)C2=O	-64.2	3.66 µM [falling, partial curve]	18.4 µM [falling, partial curve, poor fit]
O=C(COC(=O)CN1C(=O)C2CCCCC2C1=O)NNC(=O)c1ccc(Cl)cc1 (centres undefined)	25	–	7.31 µM [falling, single point]
Cc1ccc(NC(=O)CN2CCCCCC2)cc1[N+](=O)[O-]	24.3	2.06 µM [rising, partial curve]	–
COc1ccc(C2C(C(C)=O)=C(O)C(=O)N2c2ccc(Br)cc2)cc1 (centres undefined)	15.1	6.51 µM [rising, single point]	–

# (next part)

Compound,cell number change [%],AC50 [1],AC50 [2]
Cc1oc(-c2ccc(Cl)cc2)nc1CS(=O)CC(=O)NCCCN(C)C1CCCCC1 (centres undefined),-98.6,"0.00461 µM [falling, full curve, poor fit]","9.2 µM [falling, partial curve]"
COc1ccc(NS(=O)(=O)c2ccc(NC(=S)NC(=O)c3cccnc3)cc2)nn1,-27.3,"0.259 µM [falling, full curve]","0.461 µM [falling, full curve, poor fit]"
O=C1CN(C(=O)c2ccccc2F)C(c2ccc(F)cc2)c2cc(F)ccc2N1 (centres undefined),0.826,"16.4 µM [rising, partial curve]",–
COCc1cc(C)nc2sc(C(=O)Nc3ccccc3C)c(N)c12,-14.4,–,–
O=c1c(Cl)c(Cl)cnn1Cc1nnc(-c2ccc(Cl)cc2)o1,-24.3,"11.6 µM [falling, partial curve]",–
O=C(Nc1ccn(Cc2c(F)c(F)c(F)c(F)c2F)n1)c1cccc(Cn2cc([N+](=O)[O-])cn2)c1,-0.527,–,–
Cc1cc(C)c(S(=O)(=O)NCCc2ccncc2)c(C)c1,16.3,"2.59 µM [rising, full curve, poor fit]",–
COc1cccc(C(=O)N/N=C/C(Br)=C/c2ccccc2)c1,-1.56,"29.1 µM [falling, partial curve, poor fit]",–
O=C(O)c1cc(S(=O)(=O)NCc2ccco2)c(Cl)cc1Cl,14,"2.91 µM [rising, single point]",–
CC(=O)C(C)Oc1ccc(Cc2ncc(C(F)(F)F)cc2Cl)cc1 (centres undefined),-4.78,–,–
C[C@H](NC(=O)c1nc[nH]c1C(=O)NCc1ccccc1)c1ccccc1,-30.8,–,"11.6 µM [falling, single point]"
Cc1ccc(S(=O)(=O)Nc2c(C)n(C)n(-c3ccccc3)c2=O)c(C)c1,-9.85,"0.651 µM [rising, full curve]",–
CCSC1(SCC)N=C(N)C2(C#N)C(c3ccc(OC)c(OC)c3OC)C12C#N (centres undefined),–,"0.146 µM [rising, full curve]",–
Cc1ccccc1OCC(=O)Nc1ccc(N2CCN(C(=O)C(C)C)CC2)c(Cl)c1,-27.5,–,–
COc1ccc(C2(C(=O)Nc3ccc(OC)cc3OC)CCCC2)cc1,-17.8,"29.1 µM [rising, single point]",–
COc1cc(NC(=O)CSc2nc3[nH]c(=O)cc(O)c3s2)cc(OC)c1OC,-29.9,"0.82 µM [falling, partial curve, poor fit]",–
CSCCC(NC(=O)C1CC1)c1nc2ccccc2[nH]1 (centres undefined),1.07,"0.058 µM [falling, full curve, poor fit]",–
CC12CCC(=O)N1C(C(=O)Nc1cccc(S(=O)(=O)N3CCCCCC3)c1)CS2 (centres undefined),-44.7,–,"13 µM [falling, partial curve, poor fit]"
CCOc1ccc(-c2ccc(SCc3ccccn3)nn2)cc1,40.4,–,"29.1 µM [rising, single point]"
COCc1cc(N2CCN(c3ccccc3F)CC2)nc(-c2ccccc2)n1,-68.9,–,"29.1 µM [falling, single point]"

Compound,cell number change [%],AC50 [1],AC50 [2]
COc1ccc(C(=O)Nc2ccc(C3(C#N)CCCC3)cc2)cc1OC,5.84,–,–
Cc1ccc(S(=O)(=O)Nc2cccnc2)cc1C,-4.23,"3.26 µM [rising, full curve, poor fit]",–
CN(C)C=Nc1ncc2c3ccccc3n(Cc3ccccc3)c2c1C#N,–,"4.11 µM [rising, single point]","2.31 µM [rising, single point]"
CC(=O)N(Cc1ccc(Cl)cc1)c1cnccn1,30.4,–,"5.17 µM [rising, full curve, poor fit]"
COc1ccccc1C/C(N)=N/OC(=O)COc1cccc(C)c1C,12.3,–,–
CCOc1ccc(CCNC(=O)COC(=O)c2ccc(S(=O)(=O)N3CCCC3)cc2)cc1OCC,–,–,"6.51 µM [rising, single point]"
CCOc1cc(/C=N/N=C(\N)c2nonc2N)cc(Br)c1OCc1cccc2ccccc12,-83.4,"11.6 µM [falling, single point]","29.1 µM [falling, single point]"
COc1ccc(CNC(=S)Nc2cccc(OC)c2)cc1,-20.9,"23.1 µM [rising, single point]",–
CC(=O)N1CCN(c2ccc(N)cc2)CC1,1.32,"4.11 µM [rising, full curve, poor fit]",–
COc1ccc(CCNC2CC(C)N(C)CC2C)cc1OC (centres undefined),-21.8,"4.11 µM [falling, full curve, poor fit]","0.411 µM [falling, full curve, poor fit]"
COc1cccc(CNC(=O)N2CCN(c3ccccc3)CC2)c1,9.91,"0.00517 µM [rising, full curve, poor fit]",–
CC1CCCCN1CC(=O)NCc1ccc2c(c1)OCO2 (centres undefined),31.3,–,"11.6 µM [rising, partial curve, poor fit]"
CCOc1cc(CN2CCC(n3nccc3NC(=O)C3CC3)CC2)ccc1O,-32.6,–,"23.1 µM [falling, single point]"
CN(Cc1ccccc1)C(=O)c1ncn(C)c1C(=O)N(C)Cc1ccccc1,-8.66,"0.184 µM [rising, full curve, poor fit]",–
CCc1ccc(NC(=O)CSc2nc3n[nH]c(C)c3c(=N)n2-c2cccc(OC)c2)cc1,-15,"29.1 µM [falling, single point]",–
COc1ccc(C(=O)NC(=O)COC(=O)CCS(=O)(=O)c2ccc(C)cc2)cc1,-22.5,–,–
O=[N+]([O-])c1cc([N+](=O)[O-])c(Oc2c(F)cc(F)cc2F)cc1NN1CCCCC1,15.2,–,–
CC(NC(=O)CNC(=O)c1ccccc1F)c1ccc(-n2ccnc2)cc1 (centres undefined),2,"0.00461 µM [falling, full curve, poor fit]","6.51 µM [rising, single point]"
c1ccc(CNc2nc(-c3cccnc3)nc3ccccc23)cc1,–,"32.6 µM [falling, partial curve, poor fit]",–
